According to article PMC6072853 (Frontiers in Pharmacology, 2018):

Tested on: MCF-7
Assay: MTT antiproliferative assay, MCF-7
Format: cell-based, human
Settings: MCF-7, 72 h; read-out: calculated IC50 value
Excerpt: Gynecological cancer cell lines, including ovarian (A2780), cervical (HeLa), and breast cancer cell lines (MCF7, T47D, MDA-MB-231, and MDA-MB-361) were purchased from the European Collection of Authenticated Cell Cultures (ECACC, Salisbury, United Kingdom). Additional cervical cell lines (SiHa and C33A) and a non-cancerous immortalized, mammary gland epithelial cell line (hTERT-HME1) were purchased from LGC Standards GmbH (Wesel, Germany). Non-cancerous fibroblast cells (MRC-5) were also obtained from the ECACC. All cells were cultured in minimal essential medium supplemented with 10% fetal bovine serum, 1% non-essential amino acids, and 1% antibiotic-antimycotic mixture, in humidified air containing 5% CO2 at 37°C. Immortalized hTERT-HME1 cells were maintained in serum-free mammary epithelial cell growth medium (MEGM) supplemented with insulin, human epidermal growth factor (hEGF), hydrocortisone, bovine pituitary extract, and an antibiotic-antimycotic mixture. All the medium and supplements were purchased from Lonza Group Ltd. (Basel, Switzerland).
The antiproliferative properties of the compounds were assessed by an MTT assay ([Mosmann, 1983]). Cells were seeded onto 96-well microplates at a density of 10,000 cells/well (MDA-MB-361 and C33A) or 5,000 cells/well (all other cell lines). […]

N.N.[Cl][Pt][Cl] [CIS, cisplatin, reference compound] was tested, and the IC50 was 5.78 µM.
